Source: paper PMC12581312, “Lung endothelial PEAR1 induces tumor cell dormancy” (Molecular Cancer, 2025)

Sequences of proteins named here, by UniProt entry; tags and fusion partners are left off.
UniProt P51570: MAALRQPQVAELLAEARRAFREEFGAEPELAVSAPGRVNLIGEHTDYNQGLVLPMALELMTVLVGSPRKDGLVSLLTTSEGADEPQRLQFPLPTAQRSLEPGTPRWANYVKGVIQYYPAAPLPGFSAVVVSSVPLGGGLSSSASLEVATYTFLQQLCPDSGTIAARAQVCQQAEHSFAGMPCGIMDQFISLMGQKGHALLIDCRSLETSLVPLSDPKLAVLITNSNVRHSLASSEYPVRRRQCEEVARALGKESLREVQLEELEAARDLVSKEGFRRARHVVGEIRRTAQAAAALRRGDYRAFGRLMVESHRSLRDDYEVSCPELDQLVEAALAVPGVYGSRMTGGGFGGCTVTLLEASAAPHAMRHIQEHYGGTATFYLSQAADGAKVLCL
UniProt P14618: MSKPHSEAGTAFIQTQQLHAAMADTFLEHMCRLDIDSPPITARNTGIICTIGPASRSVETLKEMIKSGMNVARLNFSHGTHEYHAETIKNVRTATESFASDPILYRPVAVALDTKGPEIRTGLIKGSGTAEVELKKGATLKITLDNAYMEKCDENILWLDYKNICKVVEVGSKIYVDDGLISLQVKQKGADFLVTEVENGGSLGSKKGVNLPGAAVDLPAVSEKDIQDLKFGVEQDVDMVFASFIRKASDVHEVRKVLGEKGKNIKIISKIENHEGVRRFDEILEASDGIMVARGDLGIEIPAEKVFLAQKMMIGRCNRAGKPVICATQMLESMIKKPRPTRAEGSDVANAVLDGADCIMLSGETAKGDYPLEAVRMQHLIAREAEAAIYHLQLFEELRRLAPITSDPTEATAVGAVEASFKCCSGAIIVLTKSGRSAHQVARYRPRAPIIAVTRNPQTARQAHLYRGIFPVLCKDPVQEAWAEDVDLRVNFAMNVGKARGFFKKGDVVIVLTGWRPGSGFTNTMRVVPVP

How the values were obtained:
[1] = biological target: T1, Human recombinant PEAR1 extracellular part (platelet and endothelial aggregation receptor 1), His-tagged (human) (UniProt Q5VY43); test: affinity purification with mass spectrometry; recombinant human PEAR1 or EGFR extracellular part (1000 nM) immobilised on Ni-NTA magnetic beads, incubated with 24-hour conditioned medium of tumor cells for 1 h at RT; control Ni-NTA beads in parallel; on-bead trypsin digest, LC-MS/MS; only the target purified
T1 sequence: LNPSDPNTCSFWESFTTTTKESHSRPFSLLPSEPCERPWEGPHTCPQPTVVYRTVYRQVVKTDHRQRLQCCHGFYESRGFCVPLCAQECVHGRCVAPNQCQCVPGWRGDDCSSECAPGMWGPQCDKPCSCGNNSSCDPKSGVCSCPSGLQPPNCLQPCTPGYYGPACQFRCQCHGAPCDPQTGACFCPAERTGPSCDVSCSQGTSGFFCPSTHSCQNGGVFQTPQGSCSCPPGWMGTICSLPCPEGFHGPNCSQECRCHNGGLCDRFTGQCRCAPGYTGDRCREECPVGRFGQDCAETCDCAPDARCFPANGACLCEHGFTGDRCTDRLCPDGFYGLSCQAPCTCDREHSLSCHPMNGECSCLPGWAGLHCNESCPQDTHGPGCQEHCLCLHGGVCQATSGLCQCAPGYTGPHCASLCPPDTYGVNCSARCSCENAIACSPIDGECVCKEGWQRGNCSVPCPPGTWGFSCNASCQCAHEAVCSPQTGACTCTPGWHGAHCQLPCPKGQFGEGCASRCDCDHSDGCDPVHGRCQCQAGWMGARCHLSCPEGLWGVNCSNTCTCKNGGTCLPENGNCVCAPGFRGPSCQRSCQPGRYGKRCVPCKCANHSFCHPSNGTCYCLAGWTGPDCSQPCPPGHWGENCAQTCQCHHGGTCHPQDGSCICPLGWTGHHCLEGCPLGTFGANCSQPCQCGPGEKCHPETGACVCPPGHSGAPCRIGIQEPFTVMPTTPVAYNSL

[2] = biological target: Extracellular part of the human EGF receptor (EGFR), recombinant (human) (UniProt P00533); test: as above

GALK1 in conditioned medium of tumor cells (from UniProt P51570 1-392)
binding [1]: no binding (tested: 1000 nM PEAR1 immobilised) | binding [2]: no binding (tested: 1000 nM EGFR immobilised)

PKM in conditioned medium of tumor cells (from UniProt P14618 1-531)
binding [1]: no binding (tested: 1000 nM PEAR1 immobilised) | binding [2]: no binding (tested: 1000 nM EGFR immobilised)

B1: Semaphorin 6D (SEMA6D) in conditioned medium of tumor cells (protein, UniProt Q8NFY4 21-662)
chain: VSFPEDDEPLNTVDYHYSRQYPVFRGRPSGNESQHRLDFQLMLKIRDTLYIAGRDQVYTVNLNEMPKTEVIPNKKLTWRSRQQDRENCAMKGKHKDECHNFIKVFVPRNDEMVFVCGTNAFNPMCRYYRLSTLEYDGEEISGLARCPFDARQTNVALFADGKLYSATVADFLASDAVIYRSMGDGSALRTIKYDSKWIKEPHFLHAIEYGNYVYFFFREIAVEHNNLGKAVYSRVARICKNDMGGSQRVLEKHWTSFLKARLNCSVPGDSFFYFDVLQSITDIIQINGIPTVVGVFTTQLNSIPGSAVCAFSMDDIEKVFKGRFKEQKTPDSVWTAVPEDKVPKPRPGCCAKHGLAEAYKTSIDFPDETLSFIKSHPLMDSAVPPIADEPWFTKTRVRYRLTAISVDHSAGPYQNYTVIFVGSEAGMVLKVLAKTSPFSLNDSVLLEEIEAYNHAKCSAENEEDKKVISLQLDKDHHALYVAFSSCIIRIPLSRCERYGSCKKSCIASRDPYCGWLSQGSCGRVTPGMLAEGYEQDTEFGNTAHLGDCHEILPTSTTPDYKIFGGPTSDMEVSSSSVTTMASIPEITPKVIDTWRPKLTSSRKFVVQDDPNTSDFTDPLSGIPKGVRWEVQSGESNQMVHMN
binding [1]: binds | binding [2]: no binding (tested: 1000 nM EGFR immobilised)

No constants are given. Whether binding was seen depends on the method and setting. In cells and extracts the contact can be indirect. Here binding means that the protein was enriched with, or labelled near, the bait; the list need not be complete. A no says only that the protein was not detected with the bait. For part of these data: Where a sequence is shown, tags or fusion partners need not be part of it.
